Experimental data taken from paper PMC10604407.
These are yes or no findings as the source states them, for the method shown. Binding seen in cells or lysates may run through a third protein. Binding calls can cover weak binding; strength is not graded here.

Biological target: T1, 3HA-PREB (human prolactin regulatory element binding protein) (human) (UniProt Q9HCU5)
T1 sequence: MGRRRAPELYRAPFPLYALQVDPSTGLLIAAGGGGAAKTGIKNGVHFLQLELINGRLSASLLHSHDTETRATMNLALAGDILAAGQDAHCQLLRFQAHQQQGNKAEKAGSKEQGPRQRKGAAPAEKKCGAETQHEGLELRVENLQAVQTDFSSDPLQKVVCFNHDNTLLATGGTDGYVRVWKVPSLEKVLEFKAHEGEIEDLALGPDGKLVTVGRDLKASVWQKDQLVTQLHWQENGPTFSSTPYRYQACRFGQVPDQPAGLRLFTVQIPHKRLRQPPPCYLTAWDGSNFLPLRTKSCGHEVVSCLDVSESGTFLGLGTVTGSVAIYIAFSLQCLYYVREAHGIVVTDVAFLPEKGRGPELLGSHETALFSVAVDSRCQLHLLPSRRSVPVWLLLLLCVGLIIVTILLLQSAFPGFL
Experiment: co-IP; HEK293T cells co-transfected, 48 h; lysis buffer 50 mM Tris-HCl pH 8.0, 150 mM NaCl, 1% NP-40; lysates with antibodies 3 h, Protein A-agarose 4 °C 3 h, six washes; in Fig. 6B precipitation with HA antibodies, blots with HA and Flag antibodies

“PFV Tas DNA-binding domain (prototype foamy virus (PFV)) (domain or fragment)” was tested, and the binding was “binds”.
With “PFV Tas transcriptional activation domain (prototype foamy virus (PFV)) (domain or fragment)” the binding was “binds”.
